{"source": "the supplement of paper PMC8728848", "binders": {"B1": {"name": "CcfD (Bacteroides fragilis), Q5L9G4 (protein)", "chain": "MKKQNSIYTLLIALLCFVSSCDYLGVSDQLAGGLQNTEQVFDNVSYTKRWYANVFAGIPDYSGINSVNVGAFKNPWTGMCDELVVGYGNSSKYNNSDRNAANMGFHRYGDCYKYIRQANIFLQKAHPIMTTGTQGDQLLEDELTQMKANVRFMRAFYHYLLFEQYGPIILVKDKIYNATEDQDVPRNTVDEVIEYIDSELTAVASELTQEPIFEDKDYRAWPTKGVALAVRAKLWLYAASPLLNGGYREALSVTNPDGTRLFPDYDAGKWEKALAACKDFIDYAEAGRYELYKEYKDDNGAVIDPDKSVYNLFQKYTHEIIWATANNDWGGMNGDAFDRRIAPRCEKNGLGSTGVTQELVDAFYMKDGFPVSATAYLPQSTLYQEEGYGTYKDQNDNFSKKYTNVTVSNRYLNREPRFYNTVFFNGRQWPVSCNQVLFYNGGNSGVQEGQATLTGYMLFKRFNRSVSLTNPGVASQFRPSIIFRLADFYLMYAEAANEVNPNDARVLKYLNLVRERAGLPDIETLNPAIRGNQELQRAAIQRERQIELATEGQRYFDVRRWMIADKNGEGRQNGYVHGMNVRGESNDKEDFNRIVEASQIVFNRKMYLYPMPDSEMRKTKNLVQNPGW"}}, "test_in_all_cases": "glycan array binding signal (z-score within array); higher = stronger binding", "details_in_all_cases": "glycan notation: IUPAC condensed, linker removed", "key": {"[1]": {"biological_target": "GlcNAc(b1-3)Gal(b1-4)GlcNAc(b1-3)Gal(b1-4)GlcNAc(b1-3)Gal(b1-4)GlcNAc(b1-3)Gal(b1-4)GlcNAc(b1-2)[GlcNAc(b1-3)Gal(b1-4)GlcNAc(b1-3)Gal(b1-4)GlcNAc(b1-3)Gal(b1-4)GlcNAc(b1-3)Gal(b1-4)GlcNAc(b1-6)]Man(a1-6)[GlcNAc(b1-3)Gal(b1-4)GlcNAc(b1-3)Gal(b1-4)GlcNAc(b1-3)Gal(b1-4)GlcNAc(b1-3)Gal(b1-4)GlcNAc(b1-2)Man(a1-3)]Man(b1-4)GlcNAc(b1-4)[Fuc(a1-6)]GlcNAc", "method_in_brief": "(§1)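 The binding signal is a Z-score computed within each array. Data were drawn from 3228 arrays in the Consortium for Functional Glycomics database, restricted to those with a known protein sequence. Scores were averaged over arrays of the same protein sequence at different concentrations or buffers, and over linkers, and negative values can be taken as non-binding.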"}, "[2]": {"biological_target": "GlcNAc(b1-3)Gal(b1-4)GlcNAc(b1-3)Gal(b1-4)GlcNAc(b1-3)GalNAc", "method_in_brief": "as §1"}, "[3]": {"biological_target": "GlcNAc(b1-3)Gal(b1-4)GlcNAc(b1-3)GalNAc", "method_in_brief": "as §1"}, "[4]": {"biological_target": "GlcNAc(b1-3)Gal(b1-4)GlcNAc(b1-3)[GlcNAc(b1-3)Gal(b1-4)GlcNAc(b1-3)]GalNAc", "method_in_brief": "as §1"}, "[5]": {"biological_target": "GlcNAc(b1-3)Gal(b1-4)GlcNAc(b1-6)[Gal(b1-3)]GalNAc", "method_in_brief": "as §1"}, "[6]": {"biological_target": "GlcNAc(b1-3)Gal(b1-4)GlcNAc(b1-6)[GlcNAc(b1-3)Gal(b1-3)]GalNAc", "method_in_brief": "as §1"}, "[7]": {"biological_target": "GlcNAc(b1-3)Gal(b1-4)GlcNAc(b1-6)[GlcNAc(b1-3)]Gal(b1-4)GlcNAc", "method_in_brief": "as §1"}, "[8]": {"biological_target": "GlcNAc(b1-3)GalNAc", "method_in_brief": "as §1"}, "[9]": {"biological_target": "GlcNAc(b1-3)Man", "method_in_brief": "as §1"}, "[10]": {"biological_target": "GlcNAc(b1-3)[GlcNAc(b1-4)][GlcNAc(b1-6)]GlcNAc", "method_in_brief": "as §1"}, "[11]": {"biological_target": "GlcNAc(b1-3)[GlcNAc(b1-6)]Gal(b1-4)GlcNAc", "method_in_brief": "as §1"}, "[12]": {"biological_target": "GlcNAc(b1-3)[GlcNAc(b1-6)]GalNAc", "method_in_brief": "as §1"}, "[13]": {"biological_target": "GlcNAc(b1-4)Gal(b1-4)GlcNAc", "method_in_brief": "as §1"}, "[14]": {"biological_target": "GlcNAc(b1-4)GlcNAc", "method_in_brief": "as §1"}, "[15]": {"biological_target": "GlcNAc(b1-4)GlcNAc(b1-4)GlcNAc", "method_in_brief": "as §1"}, "[16]": {"biological_target": "GlcNAc(b1-4)GlcNAc(b1-4)GlcNAc(b1-4)GlcNAc(b1-4)GlcNAc", "method_in_brief": "as §1"}, "[17]": {"biological_target": "GlcNAc(b1-4)GlcNAc(b1-4)GlcNAc(b1-4)GlcNAc(b1-4)GlcNAc(b1-4)GlcNAc", "method_in_brief": "as §1"}, "[18]": {"biological_target": "GlcNAc(b1-4)[GlcNAc(b1-6)]GalNAc", "method_in_brief": "as §1"}, "[19]": {"biological_target": "GlcNAc(b1-6)Gal(b1-4)GlcNAc", "method_in_brief": "as §1"}, "[20]": {"biological_target": "GlcNAc(b1-6)GalNAc", "method_in_brief": "as §1"}, "[21]": {"biological_target": "GlcNAc6S(b1-3)Gal(b1-4)GlcNAc", "method_in_brief": "as §1"}, "[22]": {"biological_target": "Kdn(a2-3)Gal(b1-3)GalNAc", "method_in_brief": "as §1"}, "[23]": {"biological_target": "Kdn(a2-3)Gal(b1-3)GlcNAc", "method_in_brief": "as §1"}, "[24]": {"biological_target": "Kdn(a2-3)Gal(b1-4)Glc", "method_in_brief": "as §1"}, "[25]": {"biological_target": "Kdn(a2-3)Gal(b1-4)GlcNAc", "method_in_brief": "as §1"}, "[26]": {"biological_target": "Kdn(a2-3)Gal(b1-4)[Fuc(a1-3)]GlcNAc", "method_in_brief": "as §1"}, "[27]": {"biological_target": "Kdn(a2-6)Gal(b1-4)GlcNAc", "method_in_brief": "as §1"}, "[28]": {"biological_target": "Man(a1-2)Man(a1-2)Man(a1-3)Man", "method_in_brief": "as §1"}, "[29]": {"biological_target": "Man(a1-2)Man(a1-2)Man(a1-6)[Man(a1-3)]Man", "method_in_brief": "as §1"}, "[30]": {"biological_target": "Man(a1-2)Man(a1-3)Man", "method_in_brief": "as §1"}}, "note": "The list shows a part of the results."}
{"binder": "B1", "values": [{"measurement": "glycan array binding signal (z-score)", "setting": "[1]", "result": 6.49}, {"measurement": "glycan array binding signal (z-score)", "setting": "[2]", "result": -1.17}, {"measurement": "glycan array binding signal (z-score)", "setting": "[3]", "result": 0.345}, {"measurement": "glycan array binding signal (z-score)", "setting": "[4]", "result": 0.246}, {"measurement": "glycan array binding signal (z-score)", "setting": "[5]", "result": -0.2}, {"measurement": "glycan array binding signal (z-score)", "setting": "[6]", "result": 0.502}, {"measurement": "glycan array binding signal (z-score)", "setting": "[7]", "result": 0.069}, {"measurement": "glycan array binding signal (z-score)", "setting": "[8]", "result": -0.65}, {"measurement": "glycan array binding signal (z-score)", "setting": "[9]", "result": -0.614}, {"measurement": "glycan array binding signal (z-score)", "setting": "[10]", "result": 2.83}, {"measurement": "glycan array binding signal (z-score)", "setting": "[11]", "result": -1.27}, {"measurement": "glycan array binding signal (z-score)", "setting": "[12]", "result": -0.578}, {"measurement": "glycan array binding signal (z-score)", "setting": "[13]", "result": -1}, {"measurement": "glycan array binding signal (z-score)", "setting": "[14]", "result": -0.502}, {"measurement": "glycan array binding signal (z-score)", "setting": "[15]", "result": -0.581}, {"measurement": "glycan array binding signal (z-score)", "setting": "[16]", "result": 2.49}, {"measurement": "glycan array binding signal (z-score)", "setting": "[17]", "result": -0.877}, {"measurement": "glycan array binding signal (z-score)", "setting": "[18]", "result": -0.535}, {"measurement": "glycan array binding signal (z-score)", "setting": "[19]", "result": -0.135}, {"measurement": "glycan array binding signal (z-score)", "setting": "[20]", "result": 0.785}, {"measurement": "glycan array binding signal (z-score)", "setting": "[21]", "result": -0.516}, {"measurement": "glycan array binding signal (z-score)", "setting": "[22]", "result": 0.318}, {"measurement": "glycan array binding signal (z-score)", "setting": "[23]", "result": -0.653}, {"measurement": "glycan array binding signal (z-score)", "setting": "[24]", "result": 1.85}, {"measurement": "glycan array binding signal (z-score)", "setting": "[25]", "result": -0.43}, {"measurement": "glycan array binding signal (z-score)", "setting": "[26]", "result": -0.601}, {"measurement": "glycan array binding signal (z-score)", "setting": "[27]", "result": 1.21}, {"measurement": "glycan array binding signal (z-score)", "setting": "[28]", "result": -0.194}, {"measurement": "glycan array binding signal (z-score)", "setting": "[29]", "result": -0.273}, {"measurement": "glycan array binding signal (z-score)", "setting": "[30]", "result": -0.791}]}
